For at least one compound, name, drawing or mass did not settle the structure.
System: women with ovarian hyperandrogenism
Assay: Example 1: clinical, biochemical and endocrine-metabolic variables on flutamide, metformin or flutamide-metformin
Type: in vivo, human
Conditions: monotherapy

In the case of `CC(C)C(=O)Nc1ccc([N+](=O)[O-])c(C(F)(F)F)c1` [Flutamide, 2-methyl-N-[4-nitro-3(trifluoromethyl)phenyl] popanamide], the “effect on serum HDL-cholesterol levels” value is reported as “not to alter”.
